Measurements from patent US6506793B2, “Citral acetal” (Kao Corporation, priority 2000, dated 2003).

Experiment: Measurement of sustained release: organoleptic evaluation of aroma from impregnated filter paper
Design: key to Strength of Aroma: 5: Strong; 4: Slightly strong; 3: Moderate; 2: Slightly weak; 1: Weak; 0: Does not smell
Settings: for Strength of Aroma: 0.5 g (as citral) on filter paper, 10 cm from sample; for Aroma (character): organoleptic description, filter paper test

COC(C=C(C)CCC=C(C)C)OC [CITRAL DMA, citral dimethyl acetal, reference compound]
Strength of Aroma (After 1 week): 0 | Strength of Aroma (After 2 weeks): 0 | Strength of Aroma (After 3 weeks): 0 | Strength of Aroma (After 4 weeks): 0 | Strength of Aroma (After 2 days): 3 | Strength of Aroma (Just after application): 3 | Aroma (character): citrus

CC(C)=CCC/C(C)=C/C1OCC(C)O1 (stereo not drawn) [CITRAL PGA, citral propylene glycol acetal, reference compound]
Strength of Aroma (After 1 week): 1 | Strength of Aroma (After 2 weeks): 1 | Strength of Aroma (After 3 weeks): 0 | Strength of Aroma (After 4 weeks): 0 | Strength of Aroma (After 2 days): 0 | Strength of Aroma (Just after application): 0 | Aroma (character): weak

CCCCCOCC1COC(C=C(C)CCC=C(C)C)O1 (stereo not drawn) [Present Compound 1, citral pentyl glyceryl ether acetal]
Strength of Aroma (After 1 week): 1 | Strength of Aroma (After 2 weeks): 2 | Strength of Aroma (After 3 weeks): 2 | Strength of Aroma (After 4 weeks): 1 | Strength of Aroma (After 2 days): 0 | Strength of Aroma (Just after application): 0 | Aroma (character): lemon-

CCCCCCCCOCC1COC(C=C(C)CCC=C(C)C)O1 (stereo not drawn) [Present Compound 2, citral n-octyl glyceryl ether acetal]
Strength of Aroma (After 1 week): 1 | Strength of Aroma (After 2 weeks): 2 | Strength of Aroma (After 3 weeks): 2 | Strength of Aroma (After 4 weeks): 1 | Strength of Aroma (After 2 days): 0 | Strength of Aroma (Just after application): 0 | Aroma (character): lemon-

CCCCC(CC)COCC1COC(C=C(C)CCC=C(C)C)O1 (stereo not drawn) [Present Compound 3, citral 2-ethyl hexyl glyceryl ether acetal]
Strength of Aroma (After 1 week): 1 | Strength of Aroma (After 2 weeks): 2 | Strength of Aroma (After 3 weeks): 2 | Strength of Aroma (After 4 weeks): 1 | Strength of Aroma (After 2 days): 0 | Strength of Aroma (Just after application): 0 | Aroma (character): lemon-

CC(C)=CCCC(C)=CC=O [citral]
Strength of Aroma (After 1 week): 0 | Strength of Aroma (After 2 weeks): 0 | Strength of Aroma (After 3 weeks): 0 | Strength of Aroma (After 4 weeks): 0 | Strength of Aroma (After 2 days): 4 | Strength of Aroma (Just after application): 5 | Aroma (character): lemon-
